The target of this test is Gβ3γ9-GFP2 (Gβγ heterodimer of Gβ3 and Gγ9-GFP2) (UniProt P16520). Description: FRET or BRET; BRET2 (TRUPATH biosensors) in HEK 293T cells transfected 1:1:1:1 with receptor, Gα-RLuc8, Gβ3 and Gγ9-GFP2; 1x HBSS + 20 mM HEPES pH 7.4, coelenterazine 400a; ratio of GFP2 (510 nm) to RLuc8 (395 nm) emission; signal before and after 5 min of ET-3 or NT. A general note: BRET reads energy transfer from a luciferase to a nearby fluorophore.

Protein sequences, listed by entry. Tags and fused reporters are not part of them. Lines headed by an entry give the natural chain unless they say otherwise; changes in a name come on top.
UniProt P16520: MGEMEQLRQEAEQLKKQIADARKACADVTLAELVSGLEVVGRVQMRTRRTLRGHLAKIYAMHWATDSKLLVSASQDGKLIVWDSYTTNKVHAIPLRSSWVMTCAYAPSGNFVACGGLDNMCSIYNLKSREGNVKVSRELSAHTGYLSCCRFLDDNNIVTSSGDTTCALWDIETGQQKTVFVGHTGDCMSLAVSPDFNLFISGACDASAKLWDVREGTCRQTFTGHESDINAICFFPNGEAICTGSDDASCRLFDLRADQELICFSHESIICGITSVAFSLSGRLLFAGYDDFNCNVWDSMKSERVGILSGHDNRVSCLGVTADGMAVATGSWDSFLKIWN
UniProt Q03113: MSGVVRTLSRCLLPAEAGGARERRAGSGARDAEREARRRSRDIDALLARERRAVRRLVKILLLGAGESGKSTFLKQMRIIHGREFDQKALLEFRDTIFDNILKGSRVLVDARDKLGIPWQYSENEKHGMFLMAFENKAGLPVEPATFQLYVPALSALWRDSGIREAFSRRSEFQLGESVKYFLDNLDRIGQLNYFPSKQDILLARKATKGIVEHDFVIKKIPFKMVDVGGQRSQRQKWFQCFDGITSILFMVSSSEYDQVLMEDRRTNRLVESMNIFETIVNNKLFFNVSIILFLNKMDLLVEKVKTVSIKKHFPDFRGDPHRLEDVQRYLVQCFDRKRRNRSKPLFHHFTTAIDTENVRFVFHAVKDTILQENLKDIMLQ
UniProt Q14344: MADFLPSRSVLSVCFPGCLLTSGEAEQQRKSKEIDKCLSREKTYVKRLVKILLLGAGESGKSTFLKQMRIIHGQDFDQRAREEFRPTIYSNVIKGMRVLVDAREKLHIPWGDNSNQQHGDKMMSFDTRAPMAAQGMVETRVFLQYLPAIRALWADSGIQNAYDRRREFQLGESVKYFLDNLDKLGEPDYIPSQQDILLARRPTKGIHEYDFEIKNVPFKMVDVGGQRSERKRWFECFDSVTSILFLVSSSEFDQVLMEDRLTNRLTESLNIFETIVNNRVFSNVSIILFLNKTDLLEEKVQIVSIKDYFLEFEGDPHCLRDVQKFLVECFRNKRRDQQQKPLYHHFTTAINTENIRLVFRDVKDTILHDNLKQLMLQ

No constants are given. Whether binding was seen depends on the method and setting. In cells and extracts the contact can be indirect. Some results given as binding are weak or reduced against the parent protein; the word gives no strength.

For the substance “Gα12(134)-RLuc8 (from UniProt Q03113 1-381)”, the binding entry is given as “binds”.

Regarding “Gα13(126)-RLuc8 (from UniProt Q14344 1-377)”, the binding result is on record as “binds”.

Source of the values: publication PMC11251043.
